Results are given in words; binding and its absence hold for the method and conditions named. Some results given as binding are weak or reduced against the parent protein; the word gives no strength. Sequences can lack the tags named with a protein. Each block holds one binder with its values, some of them ahead of it.
What was measured:
[1] = biological target: T1, Pre6 tagged with slmGFP (yeast) (UniProt P40303); experiment: combined sc/dc-FLCCS
T1 sequence: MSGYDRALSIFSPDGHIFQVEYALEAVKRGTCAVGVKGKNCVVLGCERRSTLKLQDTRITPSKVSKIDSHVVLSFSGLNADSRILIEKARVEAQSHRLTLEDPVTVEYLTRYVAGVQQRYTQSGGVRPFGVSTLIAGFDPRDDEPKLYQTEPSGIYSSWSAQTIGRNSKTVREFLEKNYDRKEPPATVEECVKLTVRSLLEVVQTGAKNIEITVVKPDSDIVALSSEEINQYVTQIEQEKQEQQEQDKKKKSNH

[2] = biological target: T1, Pre6 tagged with slmGFP (yeast); experiment: single-color fluorescence lifetime cross-correlation spectroscopy
[3] = biological target: T1, Pre6 tagged with slmGFP (yeast); experiment: dual color fluorescence lifetime cross-correlation spectroscopy
[4] = biological target: T2, Rpn7 tagged with Envy (yeast) (UniProt Q06103); experiment: combined sc/dc-FLCCS
T2 sequence: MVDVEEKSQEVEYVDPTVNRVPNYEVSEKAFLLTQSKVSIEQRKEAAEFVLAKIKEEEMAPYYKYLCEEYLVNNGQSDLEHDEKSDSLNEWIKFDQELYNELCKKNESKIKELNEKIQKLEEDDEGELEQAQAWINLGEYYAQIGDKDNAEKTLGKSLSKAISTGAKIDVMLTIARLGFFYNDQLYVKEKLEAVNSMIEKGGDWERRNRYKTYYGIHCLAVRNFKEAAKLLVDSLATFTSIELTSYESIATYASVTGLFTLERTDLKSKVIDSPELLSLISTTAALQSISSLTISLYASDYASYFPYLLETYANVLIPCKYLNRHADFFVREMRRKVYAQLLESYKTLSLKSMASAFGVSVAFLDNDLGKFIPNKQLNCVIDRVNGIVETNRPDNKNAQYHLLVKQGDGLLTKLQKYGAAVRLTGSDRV

Envy-Ste11 (yeast) = biological target: T3, Envy-Ste11 (yeast) (UniProt P23561); experiment: single-color fluorescence lifetime cross-correlation spectroscopy
T3 sequence: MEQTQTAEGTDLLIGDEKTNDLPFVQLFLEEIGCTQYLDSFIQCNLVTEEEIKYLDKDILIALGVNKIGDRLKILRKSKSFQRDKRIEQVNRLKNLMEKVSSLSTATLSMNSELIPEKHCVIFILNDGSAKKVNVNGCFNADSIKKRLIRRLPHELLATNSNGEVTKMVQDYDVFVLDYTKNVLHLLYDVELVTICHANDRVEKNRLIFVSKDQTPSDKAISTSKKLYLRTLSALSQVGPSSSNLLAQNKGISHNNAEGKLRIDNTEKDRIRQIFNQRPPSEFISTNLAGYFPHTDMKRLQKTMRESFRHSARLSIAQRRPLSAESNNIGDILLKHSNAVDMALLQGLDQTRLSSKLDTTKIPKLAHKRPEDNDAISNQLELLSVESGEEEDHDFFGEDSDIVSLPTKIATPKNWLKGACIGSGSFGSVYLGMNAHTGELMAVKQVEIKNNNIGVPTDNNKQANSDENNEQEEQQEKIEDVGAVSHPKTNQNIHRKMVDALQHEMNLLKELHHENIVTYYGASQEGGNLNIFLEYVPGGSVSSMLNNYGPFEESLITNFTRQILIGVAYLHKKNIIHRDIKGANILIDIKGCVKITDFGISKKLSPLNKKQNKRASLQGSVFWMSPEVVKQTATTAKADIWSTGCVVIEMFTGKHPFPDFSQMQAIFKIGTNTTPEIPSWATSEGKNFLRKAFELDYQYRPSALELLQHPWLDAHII

binding [1]: binds
binding [2]: binds
B1: Rpn7 tagged with Envy (protein, UniProt Q06103 1-429)
chain: MVDVEEKSQEVEYVDPTVNRVPNYEVSEKAFLLTQSKVSIEQRKEAAEFVLAKIKEEEMAPYYKYLCEEYLVNNGQSDLEHDEKSDSLNEWIKFDQELYNELCKKNESKIKELNEKIQKLEEDDEGELEQAQAWINLGEYYAQIGDKDNAEKTLGKSLSKAISTGAKIDVMLTIARLGFFYNDQLYVKEKLEAVNSMIEKGGDWERRNRYKTYYGIHCLAVRNFKEAAKLLVDSLATFTSIELTSYESIATYASVTGLFTLERTDLKSKVIDSPELLSLISTTAALQSISSLTISLYASDYASYFPYLLETYANVLIPCKYLNRHADFFVREMRRKVYAQLLESYKTLSLKSMASAFGVSVAFLDNDLGKFIPNKQLNCVIDRVNGIVETNRPDNKNAQYHLLVKQGDGLLTKLQKYGAAVRLTGSDRV

binding (Envy-Ste11 (yeast)): no binding
B4: slmGFP-Don1 (protein, UniProt Q05610 1-365)
chain: MGKKNRKGKENNAAKTSFLKVENIKNTNSGLELPSQDYTNVEEKESSPKTDFPLITKEHVNTKTDSNILDYPTIGDLVSSVEKLCVLKELKIAFPEVDDTLIKAILIASQGVLEPAFNSLLYYSSPEENTDFALPMKPISVEDYSKINVSEILQREIFDDIEDEFSGQGINGSMVISKIESELSSLAEHIGNISTPGSNREVAESTRNVAVAEGHNTILSNEDSILKGKEKGKEEEKEKGEEKGVNSLKGAAVKVVAKSLKNNRIPVTVKRNEPSNNLFDVLNCDESEEEEEQDVETNTSNQERKNQGGNTEVPEAQRDSADRLPAKDDGGYKSAFGTDSCGLFAADAKDEKKQVHPSRQELSFT

The next lines start with the binder.

B2: Rpn7 tagged with 3mCherry (protein, UniProt Q06103 1-429)
chain: MVDVEEKSQEVEYVDPTVNRVPNYEVSEKAFLLTQSKVSIEQRKEAAEFVLAKIKEEEMAPYYKYLCEEYLVNNGQSDLEHDEKSDSLNEWIKFDQELYNELCKKNESKIKELNEKIQKLEEDDEGELEQAQAWINLGEYYAQIGDKDNAEKTLGKSLSKAISTGAKIDVMLTIARLGFFYNDQLYVKEKLEAVNSMIEKGGDWERRNRYKTYYGIHCLAVRNFKEAAKLLVDSLATFTSIELTSYESIATYASVTGLFTLERTDLKSKVIDSPELLSLISTTAALQSISSLTISLYASDYASYFPYLLETYANVLIPCKYLNRHADFFVREMRRKVYAQLLESYKTLSLKSMASAFGVSVAFLDNDLGKFIPNKQLNCVIDRVNGIVETNRPDNKNAQYHLLVKQGDGLLTKLQKYGAAVRLTGSDRV
binding [3]: binds

B3: Rad23 tagged with 3mCherry (protein, UniProt P32628 1-398)
chain: MVSLTFKNFKKEKVPLDLEPSNTILETKTKLAQSISCEESQIKLIYSGKVLQDSKTVSECGLKDGDQVVFMVSQKKSTKTKVTEPPIAPESATTPGRENSTEASPSTDASAAPAATAPEGSQPQEEQTATTERTESASTPGFVVGTERNETIERIMEMGYQREEVERALRAAFNNPDRAVEYLLMGIPENLRQPEPQQQTAAAAEQPSTAATTAEQPAEDDLFAQAAQGGNASSGALGTTGGATDAAQGGPPGSIGLTVEDLLSLRQVVSGNPEALAPLLENISARYPQLREHIMANPEVFVSMLLEAVGDNMQDVMEGADDMVEGEDIEVTGEAAAAGLGQGEGEGSFQVDYTPEDDQAISRLCELGFERDLVIQVYFACDKNEEAAANILFSDHAD
binding [1]: binds
binding [4]: binds

From paper doi:10.1101/2020.01.23.917435
